This is an account of results in PMC7819943, “Rice protein-binding microarrays: a tool to detect cis-acting elements near promoter regions in rice”.

The other results are listed elsewhere or left out.

This test concerns the target T1, OsSMF1 (Oryza sativa, UniProt Q6ZLB0 1-436).
T1 sequence: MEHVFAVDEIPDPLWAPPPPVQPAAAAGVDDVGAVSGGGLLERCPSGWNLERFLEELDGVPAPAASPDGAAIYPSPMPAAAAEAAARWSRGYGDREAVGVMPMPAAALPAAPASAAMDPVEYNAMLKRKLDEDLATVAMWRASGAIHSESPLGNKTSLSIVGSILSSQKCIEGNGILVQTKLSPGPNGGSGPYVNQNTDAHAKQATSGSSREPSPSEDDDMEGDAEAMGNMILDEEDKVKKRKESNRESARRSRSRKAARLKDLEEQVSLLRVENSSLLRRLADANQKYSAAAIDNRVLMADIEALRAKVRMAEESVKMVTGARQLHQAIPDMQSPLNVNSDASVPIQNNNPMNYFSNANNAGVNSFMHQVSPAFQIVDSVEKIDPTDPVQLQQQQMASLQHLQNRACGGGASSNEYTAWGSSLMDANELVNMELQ
The test is described as follows: protein-binding microarray (RPBM); PBS, 2% BSA, 51.3 ng/ul salmon testes DNA, 50 uM zinc acetate, 200 nM TF, 25 C, 1 h; high values mean tight binding. The note with it: protein: recombinant; tags: N-terminal polyhistidine and DsRed monomer fusion (pET32a); chain copies: 2; label: CyDye5-dUTP incorporated in the synthesized complementary strand; 3' TTTTT single-stranded linker to array surface; dsDNA, one strand shown. The method in brief:
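Binding signal is reported as fluorescence intensity per feature (arbitrary units) from an Axon 4000B scanner. Incubation used 200 nM of each Ni–NTA-purified, N-terminally polyhistidine- and DsRed-fused transcription factor from E. coli BL21-CodonPlus on a double-stranded custom Agilent array for 1 h at 25 °C, with 50 µM zinc acetate in the buffer, followed by washing.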
Regarding “GCTAGTAACTTTTGACGCGTCACTGCATCTGCCGATTCTGCGGAGTCACCTAGTGCAG”, the binding signal is 13100 fluorescence intensity (a.u.).

As to “ATGGTAGAGTGCTGGATGCTGCTGATCAAGCTTCGTCTTCCGGAGTCACCTAGTGCAG”, the binding signal is 3210 fluorescence intensity (a.u.).

With “TGCACACACTCACTCCTATAAACATATACACGTACACTCTCGGAGTCACCTAGTGCAG”, the binding signal was 4850 fluorescence intensity (a.u.).

“CTCCCACGAACCGCACCTCACCTTCTTTCTCTTTCATTCTCGGAGTCACCTAGTGCAG”: the binding signal was 13600 fluorescence intensity (a.u.).

For the sequence “ATTTTGGATGTGATGAACTGATGATGATGCGTGCGTGGCACGGAGTCACCTAGTGCAG”, the binding signal is 7270 fluorescence intensity (a.u.).

For the sequence “CGGCCGATGCTCCCCGTCACCACTGACGCGCCCCTCCACCCGGAGTCACCTAGTGCAG”, the binding signal is 6530 fluorescence intensity (a.u.).

Regarding “GATATTGCCCTTGAGCTGTCAGCATTAGTAGGCTATTTAACGGAGTCACCTAGTGCAG”, the binding signal is 3720 fluorescence intensity (a.u.).

“ACGAATAGTAATTTGTGAATAAAACTTTTATATACGTGTTCGGAGTCACCTAGTGCAG”: the binding signal is 4890 fluorescence intensity (a.u.).

As for “GGAGGCGATGGGGCCCACCAGTCAGCCACACGTCTCCCACCGGAGTCACCTAGTGCAG”, the binding signal was 3650 fluorescence intensity (a.u.).

In the case of “GTGGACGTGGGGTTGTACACGTCGTCGTCGGGGCATGGGCCGGAGTCACCTAGTGCAG”, the binding signal is 6280 fluorescence intensity (a.u.).

With “GATTAGTCATCCGTGACGGGCTCCTTACTACGCTGGTTTGCGGAGTCACCTAGTGCAG”, the binding signal was 4530 fluorescence intensity (a.u.).

In the case of “AAAGTTAAAACTTACTCTCTCGGGTATCGGCGACCTTGTACGGAGTCACCTAGTGCAG”, the binding signal was 3210 fluorescence intensity (a.u.).

As to “TCACATATACATTCACAATTTCACATCCACCGGATTGAGACGGAGTCACCTAGTGCAG”, the binding signal is 33500 fluorescence intensity (a.u.).

On to “CCCAAAGGCCCATGACAGGTGATGCAGCATCTTGTTTCTTCGGAGTCACCTAGTGCAG”, for which the binding signal is 4350 fluorescence intensity (a.u.).

With “ACAGTACTATCTAATCACCACGTGGTTAGCTTCGATTAATCGGAGTCACCTAGTGCAG”, the binding signal was 5570 fluorescence intensity (a.u.).

With “TCAACTTGCAGAGGCAAATCAAGAAGGTATGTTGAGTGCTCGGAGTCACCTAGTGCAG”, the binding signal is 23700 fluorescence intensity (a.u.).

“AAAGACCTTAGTTTTGACTGTGTATGTTTAACGCATGACCCGGAGTCACCTAGTGCAG”: the binding signal was 4440 fluorescence intensity (a.u.).

Regarding “GCAGAGACATCGGACAGATACGTGTAATATCAACCATCGGCGGAGTCACCTAGTGCAG”, the binding signal is 4940 fluorescence intensity (a.u.).

“AGGATGATCAGGGCAAGGAGAAGAAGAAGAAGCAACCCACCGGAGTCACCTAGTGCAG”: the binding signal is 4140 fluorescence intensity (a.u.).

With “GATTGCTTACGTATGGCTATCAAAAGTGTATTAAACTCGTCGGAGTCACCTAGTGCAG”, the binding signal is 5760 fluorescence intensity (a.u.).

With “GCCGGAGCTCGTCGCCGTACAGGCGCAGCCCCATGGCGGACGGAGTCACCTAGTGCAG”, the binding signal is 3790 fluorescence intensity (a.u.).

Consider “CGGTGACGACCACCCCACCTCACGATCCAACGGCCAATACCGGAGTCACCTAGTGCAG”, for which the binding signal is 4080 fluorescence intensity (a.u.).

Regarding “TTGATTGTATTAACACTTGTGGCAATGACCACGTGGGACCCGGAGTCACCTAGTGCAG”, the binding signal was 7960 fluorescence intensity (a.u.).

On to “ATGTGTCCTCATGTTTGGCGTGTCCCTTCTGACTGATTCGCGGAGTCACCTAGTGCAG”, for which the binding signal was 4210 fluorescence intensity (a.u.).

As for “CAACCATGAGGGGAGGGGAGGCCATAGTGGAGGACTGGAGCGGAGTCACCTAGTGCAG”, the binding signal was 3700 fluorescence intensity (a.u.).

“AAACGTCGCCAACGTAACGTCCAGTCCGCGCTCCCTGCAACGGAGTCACCTAGTGCAG”: the binding signal was 3680 fluorescence intensity (a.u.).

As to “AGAACACAATAACTTTTGCACAATTGTCACAACGGCTAGTCGGAGTCACCTAGTGCAG”, the binding signal was 3970 fluorescence intensity (a.u.).

Consider “GCCTGGAATGTATCTGGCTGGGGCTGACGTGCCAACTCCACGGAGTCACCTAGTGCAG”, for which the binding signal is 10500 fluorescence intensity (a.u.).

Turning to “CCGCGTGGAGCTCCCTGACACGTGGGACCCACCAAACCTCCGGAGTCACCTAGTGCAG”, the binding signal was 12000 fluorescence intensity (a.u.).

For the sequence “TCATGGATTGGCAGCACGCTATCCTGGACGTCATTGTTTCCGGAGTCACCTAGTGCAG”, the binding signal was 4040 fluorescence intensity (a.u.).

Turning to “CAACGATTTTGGATGGCAGTTTCACTAACGTGGTAACTACCGGAGTCACCTAGTGCAG”, the binding signal was 3160 fluorescence intensity (a.u.).

Regarding “AGGTAGTGTTTGGCACGCACATCAGCGCATTTCTTGTGGTCGGAGTCACCTAGTGCAG”, the binding signal is 4330 fluorescence intensity (a.u.).

Turning to “ACGAACGAACTGACCAGTCAGCAGTAGTAGTCCAGCGGAACGGAGTCACCTAGTGCAG”, the binding signal was 5250 fluorescence intensity (a.u.).

For the sequence “CATTGTTCGTGAAAGTAATAGTTCGGTCGATGACTCGGACCGGAGTCACCTAGTGCAG”, the binding signal is 35800 fluorescence intensity (a.u.).

Take “AATCATTTTGTCATCCAAGTGTGATGAGAAGATCATGATACGGAGTCACCTAGTGCAG”: the binding signal was 3380 fluorescence intensity (a.u.).

For the sequence “CGACCCAACCGTTTGACTCACATAATAGTGAATCAAATCACGGAGTCACCTAGTGCAG”, the binding signal was 3170 fluorescence intensity (a.u.).

“TACACACGTACGATGTGGACGTGTTCACAAAACGAATCCCCGGAGTCACCTAGTGCAG”: the binding signal is 5050 fluorescence intensity (a.u.).

Regarding “AAGCGAGCGCCACGTGGCGTGTGATGTGGACACTCCGGAACGGAGTCACCTAGTGCAG”, the binding signal is 21300 fluorescence intensity (a.u.).

Take “ATTTATTAGGGCAGCGTAGTGTGTCAGCTGTCTTGTGGAACGGAGTCACCTAGTGCAG”: the binding signal was 3720 fluorescence intensity (a.u.).

Turning to “AATAAGTTGCATCCCATTGGTAGGTACAATTGTATAAATTCGGAGTCACCTAGTGCAG”, the binding signal is 20600 fluorescence intensity (a.u.).

As for “GGATTAACAGTTTTGTGAATCAGCTTGAATTCTGTGTGTGCGGAGTCACCTAGTGCAG”, the binding signal was 3720 fluorescence intensity (a.u.).

As for “TGGGAGGCCTTGCTGACAGTACTGCAATATGGACTGCTTCCGGAGTCACCTAGTGCAG”, the binding signal is 3330 fluorescence intensity (a.u.).
